Test results reported in US20230146455A1 (Yuyu Pharma, Inc., priority 2020, published 2023).
Where “and” joins values, the source holds several entries; their conditions need not be identical. Equal values may be shown once. Where a SMILES comes first, the peptide text is derived from it. [ ]: non-standard residue; d: D form. Hyp = O=C(O)[C@@H]1C[C@@H](O)CN1

What was measured:
Assay type in all cases: cell-based, human
IFN-gamma = experiment: Example 9 Luminex, LPS hPBMCs: IFN-gamma
Protocol: (§1) Treatment Human PBMCs were pretreated with YY-101, YDE-011 and YDE-043 or reference compound; Xiidra® at various concentration (ranging from 1 nM to 100 uM) for 2 h before stimulation. An equal volume of 0.5% DMSO was used as a vehicle control. Then, the cells were treated with LPS at 5 ug/ml. The supernatants from treated cells were harvested at 24 h and placed in a 96 well for Luminex cytokine & chemokine profiling using a Luminex 200 multiplex assay (Luminex; R&D system, USA).
(§2) The main study arm with triplicate wells per group in a 24-well plate: • 1. Blank • 2. PBMC: 0.5% DMSO • 3. PBMC+LPS (5 ug/ml) • 4. PBMC+YY-101 100 uM • 5. PBMC+YY-101 10 uM • 6. PBMC+YY-101 1 uM • 7. PBMC+YY-101 0.1 uM • 8. PBMC+YY-101 0.01 uM • 9. PBMC+LPS (5 ug/ml)+Xiidra®100 uM • 10. PBMC+LPS (5 ug/ml)+Xiidra® 10 uM • 11. PBMC+LPS (5 ug/ml)+Xiidra® 1 uM • 12. PBMC+LPS (5 ug/ml)+Xiidra®0.1 uM • 13. PBMC+LPS (5 ug/ml)+Xiidra®0.01 uM • 14. PBMC+LPS (5 ug/ml)+Xiidra®0.001 uM • 15. PBMC+LPS (5 ug/ml)+YY-101 100 uM • 16. PBMC+LPS (5 ug/ml)+YY-101 10 uM • 17. PBMC+LPS (5 ug/ml)+YY-101 1 uM • 18. PBMC+LPS (5 ug/ml)+YY-101 0.1 uM • 19. PBMC+LPS (5 ug/ml)+YY-101 0.01 uM • 20. PBMC+LPS (5 ug/ml)+YY-101 0.001 uM • 21. PBMC+LPS (5 ug/ml)+YDE-011 100 uM • 22. PBMC+LPS (5 ug/ml)+YDE-011 10 uM • 23. PBMC+LPS (5 ug/ml)+YDE-011 1 uM • 24. PBMC+LPS (5 ug/ml)+YDE-011 0.1 uM • 25. PBMC+LPS (5 ug/ml)+YDE-011 0.01 uM • 26. PBMC+LPS (5 ug/ml)+YDE-011 0.001 uM • 27. PBMC+LPS (5 ug/ml)+YDE-043 100 uM • 28. PBMC+LPS (5 ug/ml)+YDE-043 10 uM • 29. PBMC+LPS (5 ug/ml)+YDE-043 1 uM • 30. PBMC+LPS (5 ug/ml)+YDE-043 0.1 uM • 31. PBMC+LPS (5 ug/ml)+YDE-043 0.01 uM • 32. PBMC+LPS (5 ug/ml)+YDE-043 0.001 uM
(§3) Multiplex assay was used to measure 30 cytokines and chemokines. The 1:2, 1:10 and 1:200 diluted cell supernatant and serial dilution of the standard were dispensed into a 96 well plate at 50 ul/well. Then, the pre-mixed cocktail of antibody-coated magnetic beads was dispensed at 50 ul/well and incubated at room temperature for 2 h in a horizontal orbital microplate shaker at 800±500 rpm. The beads were washed using a magnetic device to prevent loss. The biotin-antibody was dispensed in 50 ul of each well and incubated at room temperature for 1 h in a shaker at 800±500 rpm. After washing, streptavidin-PE was added at 50 ul/well and incubated at room temperature for 30 min in a shaker under the same conditions. Finally, after washing, wash buffer (100 ul/well) was added to the plate and incubated in a shaker for 2 min. The Luminex™ 200 setting were set according to the manufacturer's protocol. The data was calculated with a standard five-parameter logistic nonlinear regression analysis of the data (xPonent software 4.2, USA). The levels of cytokine/chemokine are normalized to the live cell counts (1×10^5 cells/mL) and presented as concentrations per mL (pg/mL or ng/mL).

TNF-alpha = experiment: Example 9 Luminex, LPS hPBMCs: TNF-alpha
Protocol: as §1, §2, §3

MMP-9 = experiment: Example 9 Luminex, LPS hPBMCs: MMP-9
Protocol: as §1, §2, §3

IL-1 alpha = experiment: Example 9 Luminex, LPS hPBMCs: IL-1 alpha; details: Bead IL-1 alpha, replicates and Mean
Protocol: as §1, §2, §3

[1] = PBMC + LPS(5 ug/ml) + test article 0.001 uM, Mean
[2] = PBMC + LPS(5 ug/ml) + test article 0.01 uM, Mean
[3] = PBMC + LPS(5 ug/ml) + test article 0.1 uM, Mean
[4] = PBMC + LPS(5 ug/ml) + test article 1 uM, Mean
[5] = PBMC + LPS(5 ug/ml) + test article 10 uM, Mean
[6] = PBMC + LPS(5 ug/ml) + test article 100 uM, Mean

## CC(C)C[C@H](NC(=O)CNC(=O)[C@H](CC(C)C)NC(=O)[C@H](CCC(N)=O)NC(=O)CNC(=O)[C@@H]1C[C@@H](O)CN1)C(=O)N[C@@H](C)C(=O)NCC(=O)N1CCC[C@H]1C(=O)N[C@@H](CCCCN)C(=O)O [YDE-011] (H-[Hyp]GQLGLAGPK-OH)
IFN-gamma; [1]
  MFI (Bead name: IFN-gamma): 185.3
IFN-gamma; PBMC + LPS(5 ug/ml) + test article 0.001 uM, single replicates
  MFI (Bead name: IFN-gamma): 147.0 and 174.0 and 235.0
IFN-gamma; [2]
  MFI (Bead name: IFN-gamma): 190.0
IFN-gamma; PBMC + LPS(5 ug/ml) + test article 0.01 uM, single replicates
  MFI (Bead name: IFN-gamma): 185.0 and 180.0 and 205.0
IFN-gamma; [3]
  MFI (Bead name: IFN-gamma): 195.3
IFN-gamma; PBMC + LPS(5 ug/ml) + test article 0.1 uM, single replicates
  MFI (Bead name: IFN-gamma): 216.0 and 180.0 and 190.0
IFN-gamma; [4]
  MFI (Bead name: IFN-gamma): 241.2
IFN-gamma; PBMC + LPS(5 ug/ml) + test article 1 uM, single replicates
  MFI (Bead name: IFN-gamma): 268.0 and 220.5 and 235.0
IFN-gamma; [5]
  MFI (Bead name: IFN-gamma): 203.0
IFN-gamma; PBMC + LPS(5 ug/ml) + test article 10 uM, single replicates
  MFI (Bead name: IFN-gamma): 237.5 and 208.0 and 163.5
IFN-gamma; [6]
  MFI (Bead name: IFN-gamma): 124.3
IFN-gamma; PBMC + LPS(5 ug/ml) + test article 100 uM, single replicates
  MFI (Bead name: IFN-gamma): 142.0 and 114.0 and 117.0
TNF-alpha; [1]
  MFI, Bead name: TNF-alpha: 431.5
TNF-alpha; PBMC + LPS(5 ug/ml) + test article 0.001 uM, individual replicates (1st, 2nd, 3rd)
  MFI, Bead name: TNF-alpha: 427.5 and 426.0 and 441.0
TNF-alpha; [2]
  MFI, Bead name: TNF-alpha: 443.7
TNF-alpha; PBMC + LPS(5 ug/ml) + test article 0.01 uM, individual replicates (1st, 2nd, 3rd)
  MFI, Bead name: TNF-alpha: 441.0 (2×) and 449.0
TNF-alpha; [3]
  MFI, Bead name: TNF-alpha: 435.7
TNF-alpha; PBMC + LPS(5 ug/ml) + test article 0.1 uM, individual replicates (1st, 2nd, 3rd)
  MFI, Bead name: TNF-alpha: 437.0 and 438.0 and 432.0
TNF-alpha; [4]
  MFI, Bead name: TNF-alpha: 431.3
TNF-alpha; PBMC + LPS(5 ug/ml) + test article 1 uM, individual replicates (1st, 2nd, 3rd)
  MFI, Bead name: TNF-alpha: 440.0 and 415.0 and 439.0
TNF-alpha; [5]
  MFI, Bead name: TNF-alpha: 456.0
TNF-alpha; PBMC + LPS(5 ug/ml) + test article 10 uM, individual replicates (1st, 2nd, 3rd)
  MFI, Bead name: TNF-alpha: 479.0 and 431.0 and 458.0
TNF-alpha; [6]
  MFI, Bead name: TNF-alpha: 334.2
TNF-alpha; PBMC + LPS(5 ug/ml) + test article 100 uM, individual replicates (1st, 2nd, 3rd)
  MFI, Bead name: TNF-alpha: 340.0 and 331.5 and 331.0
MMP-9; PBMC + LPS(5 ug/ml) + 0.001 uM, Mean
  MMP-9 MFI: 44.8
MMP-9; PBMC + LPS(5 ug/ml) + 0.001 uM, single replicates
  MMP-9 MFI: 48.5 and 41.5 and 44.5
MMP-9; PBMC + LPS(5 ug/ml) + 0.01 uM, Mean
  MMP-9 MFI: 40.5
MMP-9; PBMC + LPS(5 ug/ml) + 0.01 uM, single replicates
  MMP-9 MFI: 39.5 (2×) and 42.5
MMP-9; PBMC + LPS(5 ug/ml) + 0.1 uM, Mean
  MMP-9 MFI: 40.5
MMP-9; PBMC + LPS(5 ug/ml) + 0.1 uM, single replicates
  MMP-9 MFI: 42.5 and 39.5 (2×)
MMP-9; PBMC + LPS(5 ug/ml) + 1 uM, Mean
  MMP-9 MFI: 41.8
MMP-9; PBMC + LPS(5 ug/ml) + 1 uM, single replicates
  MMP-9 MFI: 42.5 (2×) and 40.5
MMP-9; PBMC + LPS(5 ug/ml) + 10 uM, Mean
  MMP-9 MFI: 42.2
MMP-9; PBMC + LPS(5 ug/ml) + 10 uM, single replicates
  MMP-9 MFI: 41.5 (2×) and 43.5
MMP-9; PBMC + LPS(5 ug/ml) + 100 uM, Mean
  MMP-9 MFI: 38.5
MMP-9; PBMC + LPS(5 ug/ml) + 100 uM, single replicates
  MMP-9 MFI: 38.5 and 39.5 and 37.5
IL-1 alpha; PBMC + LPS(5 ug/ml) + YDE011 0.001 uM
  MFI: 383.0 and 382.0 and 416.5 and 393.8
IL-1 alpha; PBMC + LPS(5 ug/ml) + YDE011 0.01 uM
  MFI: 414.0 and 444.5 and 416.8 and 392.0
IL-1 alpha; PBMC + LPS(5 ug/ml) + YDE011 0.1 uM
  MFI: 378.0 and 352.0 and 398.0 and 376.0
IL-1 alpha; PBMC + LPS(5 ug/ml) + YDE011 1 uM
  MFI: 400.5 and 363.0 and 396.0 and 386.5
IL-1 alpha; PBMC + LPS(5 ug/ml) + YDE011 10 uM
  MFI: 410.0 and 372.0 and 396.0 and 392.7
IL-1 alpha; PBMC + LPS(5 ug/ml) + YDE011 100 uM
  MFI: 532.0 and 472.0 and 518.0 and 507.3
